The target in this assay is T1, MCT2 tagged with CFP on the C-terminus (rat) (UniProt Q63344).
T1 sequence: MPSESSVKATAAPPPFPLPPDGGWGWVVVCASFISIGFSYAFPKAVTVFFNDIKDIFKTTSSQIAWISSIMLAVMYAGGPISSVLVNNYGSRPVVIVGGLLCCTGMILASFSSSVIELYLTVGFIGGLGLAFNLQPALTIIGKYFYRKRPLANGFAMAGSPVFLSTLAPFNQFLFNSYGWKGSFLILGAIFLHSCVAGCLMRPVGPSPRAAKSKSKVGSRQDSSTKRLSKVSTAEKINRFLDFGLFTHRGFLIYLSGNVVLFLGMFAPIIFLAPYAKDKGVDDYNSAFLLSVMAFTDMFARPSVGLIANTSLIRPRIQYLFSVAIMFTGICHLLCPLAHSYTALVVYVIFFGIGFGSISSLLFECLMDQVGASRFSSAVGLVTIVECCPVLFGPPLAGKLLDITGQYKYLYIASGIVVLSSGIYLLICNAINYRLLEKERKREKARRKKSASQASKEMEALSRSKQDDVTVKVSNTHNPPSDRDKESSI
The assay can be described thus: FRET or BRET; data not shown; MCT2 tagged with CFP on the C-terminus. Background: Bioluminescence resonance energy transfer reports proximity on the nanometre scale.

The chains behind the UniProt entries cited, without tags or fusion partners. Residues count along the entry.
UniProt P97546, residues 29-393: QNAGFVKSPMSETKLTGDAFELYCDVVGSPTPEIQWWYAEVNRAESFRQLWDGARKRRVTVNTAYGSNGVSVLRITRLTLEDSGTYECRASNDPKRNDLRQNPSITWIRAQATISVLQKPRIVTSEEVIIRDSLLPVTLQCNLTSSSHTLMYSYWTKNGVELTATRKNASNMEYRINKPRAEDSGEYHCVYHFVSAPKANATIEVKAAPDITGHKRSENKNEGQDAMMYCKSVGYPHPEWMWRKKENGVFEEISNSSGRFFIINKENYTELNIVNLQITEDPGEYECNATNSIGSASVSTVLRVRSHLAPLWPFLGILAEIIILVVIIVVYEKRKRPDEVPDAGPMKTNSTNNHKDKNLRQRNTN

No constants are given. Whether binding was seen depends on the method and setting. In cells and extracts the contact can be indirect. Some binding calls cover weakened binding; strength is not graded here. Tags and fused reporters may be left off the sequences shown.

Regarding “np65 C-terminally labelled with YFP (from UniProt P97546-2 29-393)”, the binding result is reported as “binds”.

For the origin of these results see publication PMC3832594.
